Source: PubChem BioAssay AID743454 (Peter MacCallum Cancer Centre, 2014)

Assay: 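Knock-downs lowering viability or raising caspase 3/7 activity in vorinostat-treated resistant cells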 (primary screen)
Cells: human HCT116-VR colon cancer cells, selected for vorinostat resistance
Knock-down reagent: siRNA pool against human genes, 40 nM siRNA pool
Duration: vorinostat for 24 h, read-out about 72 h after transfection
Challenge: vorinostat at 2.5 µM final
Detection: 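Cell viability by CellTiter-Fluor and caspase 3/7 activity by luminescence, each scaled to mock wells per plate, duplicates averaged, then robust z-scored over all plates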
Scale: viability robust z-score: higher = more viable cells than screen typical; caspase robust z-score: higher = more caspase 3/7 activity than screen typical
Call rule: 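Hits are knock-downs in viability class RV1/RV2 or caspase class CA1/CA2, excluding ones that killed cells in the no-drug cell-count arm; hits then retested with single siRNAs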
Shown is a random part of about 18,000 deposited reagents. 450 of them (2.5%) count as active. 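Single biological run; no consistent viability z cut-off exists, so the class columns, not z-scores, define the calls.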 No sequences are given here.

gene knocked down | viability hit class | caspase hit class | viability robust z-score | caspase robust z-score | Outcome
TMPRSS2 | no change | no change | 0.53 | -0.6 | inactive
NEK1 | no change | no change | -0.43 | -0.9 | inactive
CSRP1 | no change | no change | -1.36 | -0.87 | inactive
YTHDC1 | no change | no change | -2.06 | 4.82 | inactive
LRBA | no change | no change | 0.1 | -0.6 | inactive
CHCHD1 | no change | no change | 0.52 | -0.28 | inactive
IFT25 | no change | no change | 1.15 | -0.52 | inactive
TIMM22 | no change | no change | -0.46 | -0.82 | inactive
STK16 | no change | no change | 0.48 | 2.69 | inactive
HK1 | no change | no change | -0.49 | -0.57 | inactive
SLC26A4 | no change | no change | 0.51 | -0.82 | inactive
RTN1 | no change | no change | -0.49 | 0.41 | inactive
NPFFR2 | no change | no change | -1.08 | 0.29 | inactive
SMAD4 | no change | no change | -0.08 | 0.08 | inactive
PIK3CD-AS1 | no change | no change | -0.16 | 0.7 | inactive
MARCHF11 | no change | no change | 0.64 | 0.41 | inactive
METTL25 | no change | no change | -0.69 | -1.15 | inactive
GCC2 | no change | no change | 0.37 | -0.34 | inactive
LINC02903 | no change | no change | -1.98 | 0.46 | inactive
NCKAP1 | no change | no change | 0.74 | -0.66 | inactive
SKA3 | no change | no change | 0.82 | 3.12 | inactive
CHD8 | no change | no change | -0.58 | 2.21 | inactive
GGCX | no change | no change | 0.74 | 0.95 | inactive
FCGBP | no change | no change | 0.45 | -0.13 | inactive

In a second layout: results already given.
CSRP1
- viability hit class: no change
- caspase hit class: no change
- viability robust z-score: -1.36
- caspase robust z-score: -0.87
- Outcome: inactive

YTHDC1
- viability hit class: no change
- caspase hit class: no change
- viability robust z-score: -2.06
- caspase robust z-score: 4.82
- Outcome: inactive

LRBA
- viability hit class: no change
- caspase hit class: no change
- viability robust z-score: 0.1
- caspase robust z-score: -0.6
- Outcome: inactive

CHCHD1
- viability hit class: no change
- caspase hit class: no change
- viability robust z-score: 0.52
- caspase robust z-score: -0.28
- Outcome: inactive

IFT25
- viability hit class: no change
- caspase hit class: no change
- viability robust z-score: 1.15
- caspase robust z-score: -0.52
- Outcome: inactive

TIMM22
- viability hit class: no change
- caspase hit class: no change
- viability robust z-score: -0.46
- caspase robust z-score: -0.82
- Outcome: inactive

STK16
- viability hit class: no change
- caspase hit class: no change
- viability robust z-score: 0.48
- caspase robust z-score: 2.69
- Outcome: inactive

Additional reagents follow.
gene knocked down | viability hit class | caspase hit class | viability robust z-score | caspase robust z-score | Outcome
C20orf141 | no change | no change | -0.24 | -0.28 | inactive
PSMD11 | no change | no change | -3.92 | 1.55 | inactive
PI4KAP2 | no change | no change | -0.32 | 2.27 | inactive
ZNF165 | no change | no change | -0.82 | 0.15 | inactive
BICDL1 | RV2 (reduced viability) | no change | -3.5 | -1.25 | active
MRTO4 | no change | no change | -1.4 | 0.32 | inactive
DHX40 | no change | no change | -0.88 | -0.91 | inactive
ESCO2 | no change | no change | 0.3 | -0.36 | inactive
SPINK5 | no change | no change | 0.9 | 0.06 | inactive
SMC6 | no change | no change | 1.35 | 1.66 | inactive
H4C4 | no change | no change | -1.08 | 0.16 | inactive
C5AR1 | no change | no change | 0.4 | -0.08 | inactive
AHSG | no change | no change | -1.25 | -1.32 | inactive
EBPL | no change | no change | 1.22 | -0.86 | inactive
PJA2 | no change | no change | -0.31 | -0.76 | inactive
